Laboratory results reported in PMC4357696.
Numbering of substitutions follows the chain as printed. Names and notes keep the numbering of the source. No constants are given. Whether binding was seen depends on the method and setting. Some entries that bind do so weakly or less than the wild type. Sequences can lack the tags named with a protein. One block for each binder: values may come before it.

By UniProt entry, the sequences of proteins in these tests, tags left out.
UniProt P15873: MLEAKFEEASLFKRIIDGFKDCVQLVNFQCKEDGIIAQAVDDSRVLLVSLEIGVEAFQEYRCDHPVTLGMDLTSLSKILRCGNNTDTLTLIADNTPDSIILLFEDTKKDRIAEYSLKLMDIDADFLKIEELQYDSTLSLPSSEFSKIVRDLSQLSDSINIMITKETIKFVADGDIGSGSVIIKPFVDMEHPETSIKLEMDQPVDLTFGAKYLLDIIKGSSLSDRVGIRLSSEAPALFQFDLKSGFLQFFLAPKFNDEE

What was measured:
[1] = target: T1, full length Rad5 (1-1169 a.a.), Gal4 DNA-binding domain fusion (pGBT9-RAD5, p347) (budding yeast) (UniProt P32849); experiment: two-hybrid; yeast two-hybrid, Gal4 AD and BD fusions expressed from high-copy-number plasmids (2μ-based); also the Rad5 deletion constructs in pGBT9
T1 sequence: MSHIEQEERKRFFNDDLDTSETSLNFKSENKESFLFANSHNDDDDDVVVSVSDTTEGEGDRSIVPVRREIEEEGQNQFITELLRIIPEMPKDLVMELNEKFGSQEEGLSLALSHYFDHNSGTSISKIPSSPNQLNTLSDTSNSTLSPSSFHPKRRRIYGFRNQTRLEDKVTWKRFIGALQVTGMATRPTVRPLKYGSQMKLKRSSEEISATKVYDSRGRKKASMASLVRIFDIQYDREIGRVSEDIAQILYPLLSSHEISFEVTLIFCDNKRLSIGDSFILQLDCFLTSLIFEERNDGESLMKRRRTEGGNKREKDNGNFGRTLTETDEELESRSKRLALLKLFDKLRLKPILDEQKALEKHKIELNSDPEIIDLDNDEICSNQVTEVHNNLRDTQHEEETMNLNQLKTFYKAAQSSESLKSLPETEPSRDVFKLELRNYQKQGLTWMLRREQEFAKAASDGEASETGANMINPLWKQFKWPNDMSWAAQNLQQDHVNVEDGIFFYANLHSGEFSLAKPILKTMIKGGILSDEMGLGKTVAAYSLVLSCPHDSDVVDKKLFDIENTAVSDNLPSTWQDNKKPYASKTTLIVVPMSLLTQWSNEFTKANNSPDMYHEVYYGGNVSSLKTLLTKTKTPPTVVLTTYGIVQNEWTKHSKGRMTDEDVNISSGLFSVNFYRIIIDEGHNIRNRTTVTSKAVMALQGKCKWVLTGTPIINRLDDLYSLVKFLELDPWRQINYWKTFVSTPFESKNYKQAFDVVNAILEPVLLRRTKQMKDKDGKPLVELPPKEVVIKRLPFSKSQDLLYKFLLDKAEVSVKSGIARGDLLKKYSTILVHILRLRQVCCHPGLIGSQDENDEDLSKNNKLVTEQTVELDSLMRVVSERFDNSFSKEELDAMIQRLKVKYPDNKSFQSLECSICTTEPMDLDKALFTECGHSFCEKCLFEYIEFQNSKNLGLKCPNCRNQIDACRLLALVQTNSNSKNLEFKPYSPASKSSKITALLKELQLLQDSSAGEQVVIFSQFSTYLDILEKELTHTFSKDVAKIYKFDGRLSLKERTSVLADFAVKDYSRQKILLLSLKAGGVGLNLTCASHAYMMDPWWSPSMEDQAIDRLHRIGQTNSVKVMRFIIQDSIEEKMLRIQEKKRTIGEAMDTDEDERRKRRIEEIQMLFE

[2] = target: T2, rad5-AA (D681A, E682A), Gal4 DNA-binding domain fusion (pGBT9-rad5-AA, p404) (budding yeast) (UniProt P32849); experiment: as above
T2 sequence: T1 sequence with D681A, E682A

[3] = target: PCNA, Gal4 DNA-binding domain fusion (pOBD-POL30, pXZ373) (budding yeast) (UniProt P15873); experiment: two-hybrid; yeast two-hybrid, Gal4 AD and BD fusions expressed from low-copy-number plasmids (CEN-based)
[4] = target: T3, Rev1, Gal4 DNA-binding domain fusion (pOBD-REV1, pXZ442) (budding yeast) (UniProt P12689); experiment: as above
T3 sequence: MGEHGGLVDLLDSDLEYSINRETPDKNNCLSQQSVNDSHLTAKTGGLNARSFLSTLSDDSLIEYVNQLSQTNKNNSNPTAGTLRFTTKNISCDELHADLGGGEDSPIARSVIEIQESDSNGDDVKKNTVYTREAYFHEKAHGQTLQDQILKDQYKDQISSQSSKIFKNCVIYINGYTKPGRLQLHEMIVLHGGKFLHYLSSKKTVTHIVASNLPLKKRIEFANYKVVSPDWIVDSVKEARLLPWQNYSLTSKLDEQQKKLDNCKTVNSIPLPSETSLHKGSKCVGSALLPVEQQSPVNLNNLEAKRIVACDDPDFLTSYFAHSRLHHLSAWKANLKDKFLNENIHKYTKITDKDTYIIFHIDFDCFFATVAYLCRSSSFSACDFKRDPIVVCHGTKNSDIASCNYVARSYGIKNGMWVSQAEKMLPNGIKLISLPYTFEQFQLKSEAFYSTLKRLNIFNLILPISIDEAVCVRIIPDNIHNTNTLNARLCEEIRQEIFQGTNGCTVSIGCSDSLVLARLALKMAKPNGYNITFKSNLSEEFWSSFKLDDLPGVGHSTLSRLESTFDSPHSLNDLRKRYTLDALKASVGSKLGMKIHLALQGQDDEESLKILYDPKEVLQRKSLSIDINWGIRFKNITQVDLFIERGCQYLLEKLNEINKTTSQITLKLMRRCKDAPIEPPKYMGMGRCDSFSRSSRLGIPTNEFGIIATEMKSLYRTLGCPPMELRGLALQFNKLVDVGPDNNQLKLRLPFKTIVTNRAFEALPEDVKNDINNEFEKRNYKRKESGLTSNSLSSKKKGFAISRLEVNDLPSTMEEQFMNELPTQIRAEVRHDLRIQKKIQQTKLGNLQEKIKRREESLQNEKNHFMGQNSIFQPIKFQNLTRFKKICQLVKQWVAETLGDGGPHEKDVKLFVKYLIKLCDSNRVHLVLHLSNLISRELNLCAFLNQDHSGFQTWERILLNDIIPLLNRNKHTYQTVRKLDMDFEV

[5] = target: T4, Ubc13, Gal4 DNA-binding domain fusion (pOBD-UBC13, pXZ386) (budding yeast) (UniProt P52490); experiment: as above
T4 sequence: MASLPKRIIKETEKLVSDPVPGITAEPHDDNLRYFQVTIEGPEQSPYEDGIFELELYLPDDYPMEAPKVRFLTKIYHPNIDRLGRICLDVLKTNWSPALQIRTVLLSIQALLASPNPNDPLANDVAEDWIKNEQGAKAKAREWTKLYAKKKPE

binding [1]: binds
binding [2]: binds
B1: Ubc13, two-hybrid fusion on a high-copy-number plasmid (enzyme, UniProt P52490 1-153)
chain: T4 sequence

binding [3]: binds
binding [4]: binds
binding [5]: binds
B2: Rad5, Gal4 activation domain fusion (pOAD-RAD5, pXZ388) (protein, UniProt P32849 1-1169)
chain: T1 sequence

binding [4]: binds
B3: rad5-AA (D681A, E682A), Gal4 activation domain fusion (pOAD-rad5-AA, pXZ571) (protein, UniProt P32849 1-1169)
chain: T1 sequence with D681A, E682A
